Experimental data taken from PMC5606850, “Acidic C-terminal domains autoregulate the RNA chaperone Hfq” (eLife, 2017).

Test system: D16-FAM·R16
Assay: anisotropy time-course of D16-FAM·R16 binding, annealing and release
Assay type: biochemical
Conditions: mixture of ternary complex, D16-FAM·R16 and Hfq·D16-FAM; mean of at least two independent experiments
Protocol: Figure 4. Shortening the CTD increases auto-inhibition by acidic residues. (A) Observed annealing rate constants for 100 nM target RNA and 50 nM molecular beacon with 0–200 nM Hfq hexamer at 30°C, measured by stopped-flow fluorescence. Black, Hfq102; red, Hfq-sCTD; cyan, Hfq65. (B) Fluorescence anisotropy assay for RNA binding and release. In stopped-flow FRET experiments, the dsRNA is released after pairing with its complementary strand ([Panja et al., 2013]; [Santiago-Frangos et al., 2016]). […] Remaining RNA was displaced from Hfq by excess ssDNA (400 nM DNA2). The averages and standard deviations for three trials are plotted for each Hfq variant. […] (D) Annealing of 5 nM ^32P-ChiX sRNA with 30 nM chiP mRNA without Hfq, or with Hfq65, Hfq102 or Hfq-sCTD, as indicated above each lane. Samples were loaded on a native polyacrylamide gel 60 min or 20 s after the components were mixed. […] (E) Fractions of free ChiX (black), ChiX·chiP dsRNA (light grey), ChiX·Hfq·chiP ternary complex (hatched) and ChiX·Hfq binary complex (dark grey) after 4 min of annealing, as analyzed by EMSA (Figure 4—figure supplement 2). […] Annealing of 100 nM Target RNA to 50 nM beacon RNA by Hfq variants was measured by stopped flow fluorescence at 30°C in 1 × TNK buffer. […] The change in fluorescence emission intensity was normalized to the maximum fluorescence within an experiment. […]

| Substance | rAP, anisotropy at the end of the 'annealing and release' phase |
| --- | --- |
| Hfq102: full-length E. coli Hfq | 0.0732 |
| Hfq65: truncated E. coli Hfq variant lacking the CTD | 0.1099 |
